# Assay results published in PubChem BioAssay AID2685 (National Center for Advancing Translational Sciences (NCATS), 2010).
# Screen size: about 320,000 compounds; about 2,100 (0.66%) were called active. Inconclusive results, whose numbers are uncertain, are shown with a selection of clear calls. The call rests on the fitted dose curve; in most records, active means well fitted inhibition curve with a large enough effect in the signal ratio, with a control signal flat (not every such curve was filed as active); inconclusive means small, poorly fitted or top-dose-only effect, or effect the other way, or a change in a side signal; inactive means flat fitted curve, though single readings scatter; the % refers to the signal ratio. Potencies of inconclusive entries are doubtful fits and often do not repeat.
# Test: qHTS Assay for Lipid Storage Modulators in Drosophila S3 Cells
# Details: BODIPY lipid droplet fluorescence, 18-24 h, cells fed with added oleic acid; lipid storage change, negative = inhibition: at 46.1 µM (top of the series) unless noted
# Procedure, shortened: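 Laser-scanning cytometry quantifies lipid droplet accumulation (500–530 nm total intensity; droplet/cell object ratio) in oleic acid-fed (400 uM added) Drosophila S3 cells treated with a concentration series. 20 uM Triacsin C defined 100% inhibition.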
# On the % scale 0 is the no-effect control and ±100 the full control effect; potency means the concentration at half of the fitted maximal effect.
SMILES,"lipid storage change, negative = inhibition",Potency
COC(=O)c1ccc2[nH]c(C(C)(C)O)c(C)c2c1,inconclusive: 18.5%,–
CCC(CO)NCc1ccc2c(c1)n(C)c(=O)n2C (stereo unspecified),–,"inconclusive: 0.116 µM [falling, full curve]"
C=CCn1c(SCC(=O)NC2CC2)nc2ccccc2c1=O,inconclusive: -12.4%,–
Cc1ccc(C(=O)NC(=S)Nc2ccc(N3CCOCC3)cc2)cc1C,inconclusive: -20.7%,–
CC(C)[C@H](NS(=O)(=O)c1ccc(Cl)cc1)C(=O)OCC(=O)c1c(N)n(C)c(=O)n(C)c1=O,–,active: 29.1 µM
O=C(CN1C(=O)NC2(CCCC2)C1=O)NCC1CCCO1 (stereo unspecified),inconclusive: 50.4%,–
Cc1cccc(OCC(=O)Nc2nnc(S(=O)(=O)N3CCCCC3)s2)c1,–,"inconclusive: 0.82 µM [activator, full curve, poor fit]"
CC(C)(C)c1ccc(C2C(C(=O)c3ccco3)=C(O)C(=O)N2CC2CCCO2)cc1 (stereo unspecified),inconclusive: -14.3%,–
CC(=O)Nc1ccc(NC(=O)c2cccc3c2-c2ccccc2C3=O)cc1,inconclusive: -8.02%,–
CNC(=S)N/N=C/c1cn(Cc2c(F)cccc2Cl)c2ccccc12,–,"inconclusive: 6.51 µM [activator, partial curve]"
O=S(=O)(Nc1cccc(-n2cnnn2)c1)c1cccc(Cl)c1,inconclusive: -2.52%,–
N#CCSc1nnc(Cc2cccs2)n1C1CCCCC1,inconclusive: -0.167%,–
Cc1n[nH]c(=S)n1/N=C/c1cccc(OCc2ccccc2)c1,inconclusive: -30.4%,–
Cc1c(Cc2ccccc2)c(=O)oc2cc(OCC(=O)NCC(O)c3ccccc3)ccc12 (stereo unspecified),–,"inconclusive: 4.11 µM [falling, single point]"
OC1(C2(O)CC(c3ccccc3)ON2)CCCCC1 (stereo unspecified),inconclusive: -12.1%,–
COc1ccc(C2=NOC(C(=O)O)C2)cc1 (stereo unspecified),inconclusive: 15.9%,–
COc1ccc(S(=O)(=O)Cc2ccc(C(=O)NCCCN(C)c3ccccc3)o2)cc1,inconclusive: -6.7%,–
O=C(Nc1ccccc1C(=O)O)c1ccc(NC(=O)C2CCCO2)cc1 (stereo unspecified),inconclusive: 98.5%,–
Cc1ccc(C(=O)C2=C(O)C(=O)N(Cc3cccnc3)C2c2ccc(N(C)C)cc2)o1 (stereo unspecified),inconclusive: -79.3%,–
COc1cc2cnc(-c3ccccc3)c(-c3cccc(C(F)(F)F)c3)c2cc1OC,–,"inconclusive: 0.731 µM [falling, single point]"
CCOC(=O)c1ccc(N=c2ssnc2Cl)cc1,inconclusive: -6.36%,–
CC(=O)Nc1ccc2c(c1)OCCOCCOc1cc(NC(C)=O)ccc1OCCOCCOCCO2,inconclusive: -16.3%,–
NC(=S)N/N=C/c1ccc2cccc(OCc3ccccc3)c2n1,inconclusive: -65.2%,–
CN(C)C(CN=C1NS(=O)(=O)c2ccccc21)c1ccco1 (stereo unspecified),inconclusive: 13.3% [at 9.22 µM],–
Cc1ccc(C2(C)NC(=O)N(CC(=O)NC3CCCCC3)C2=O)cc1 (stereo unspecified),–,"inconclusive: 1.84 µM [cytotoxic, partial curve]"
COc1ccccc1N(CC(=O)NCC1CCCO1)C(=O)CNS(=O)(=O)c1ccccc1 (stereo unspecified),inactive: 6.59%,–

SMILES,"lipid storage change, negative = inhibition",Potency
CCOC(=O)c1sc(-c2ccc(OC)cc2)cc1N,inconclusive: 44.4%,–
COc1ccccc1C(=O)Oc1ccc(C(C)C)cc1,–,"inconclusive: 23.1 µM [activator, single point]"
COC(=O)C1=C(C)NC(=O)CC1c1cccc(OC)c1OC (stereo unspecified),inconclusive: 11.7%,–
O=S(=O)(c1ccc2ccccc2c1)n1cccn1,–,"inconclusive: 11.6 µM [falling, partial curve, poor fit]"
Cc1ccc(S(=O)(=O)Nn2c(C)nnc2-n2nc(C)cc2C)cc1,inconclusive: 3.17%,–
CCN(CC(=O)Nc1ccc2c(c1)OCCO2)C(=O)C(C)Oc1ccc(Cl)cc1 (stereo unspecified),inconclusive,–
CCCCC(=O)NC(=S)Nc1ccc(NC(=O)C(C)C)c(OC)c1,inconclusive: -15.6%,–
O=c1cc(-c2ccccc2)c2cc3c(cc2[nH]1)OCCO3,inconclusive: 61.2%,–
COc1ccc(/C=C2\SC(=S)N(CCCC(=O)N3CCOCC3)C2=O)cc1OC,–,"inconclusive: 0.13 µM [activator, full curve, poor fit]"
Cc1cc(=O)[nH]c(N/N=C/c2cc(C)n(-c3ccccc3)c2C)n1,inconclusive: 9.36%,–
O=c1c2ccccc2nc(SCc2ccncc2)n1CC1CCCO1 (stereo unspecified),inconclusive: 8.69%,–
O=C(Nc1ccc(F)cc1)c1cc2c(s1)CCCC2,inconclusive: 10.5%,–
CCC/C=N/NC(=O)c1ccccc1O,inconclusive: -18%,–
Cc1cc(Nc2ccc(C(=O)O)cc2)nc(N)n1,inconclusive: 13.3%,–
S=c1[nH]nc(-c2ccc(Cl)cc2)n1Cc1ccccc1,inconclusive: -3.74%,–
CSc1ccc(S(=O)(=O)N2CCC(C(=O)NCc3ccccn3)CC2)cc1,–,"inconclusive: 23.1 µM [activator, partial curve]"
CN1C(=O)C(C)(C)c2cc(S(=O)(=O)N3CCN(c4ccccc4F)CC3)ccc21,inconclusive: -34.7%,–
CN(Cc1ccc(F)cc1)C(=O)c1cccc(OCc2ccccc2)c1,inconclusive: -0.987%,–
O=C(CSCc1nc2ccccc2[nH]1)N1CCN(c2ccc(F)cc2)CC1,inconclusive: -7.76%,–
COc1cccc(/C=N/NC(=O)c2ccc(=O)n(C)c2)c1O,–,"inconclusive: 29.1 µM [activator, single point]"
c1ccc(-n2nnnc2-n2cnc3ccccc32)cc1,–,"inconclusive: 9.2 µM [rising, partial curve]"
Cc1cc2ccccc2n1CCNC(=O)c1ccc(S(=O)(=O)N2CCCCC2)cc1,–,"inconclusive: 13 µM [falling, single point]"
O=C(Cc1ccccc1)NC(NC(=S)Nc1cc(Cl)ccc1Cl)C(Cl)(Cl)Cl (stereo unspecified),inactive: 23.7%,–
COc1ccc(-c2cc(C(=O)OC3CCOC3=O)c3ccccc3n2)cc1OC (stereo unspecified),–,"inconclusive: 29.1 µM [activator, single point]"
CC1=NN(C(C#N)c2c(C)nn(Cc3ccccc3)c2C)C(C)(C)C1 (stereo unspecified),–,"inconclusive: 29.1 µM [activator, single point]"

# Full records as entered above.
# O=C(Nc1ccc(F)cc1)c1cc2c(s1)CCCC2 is listed as lipid storage change, negative = inhibition: inconclusive: 10.5%
# O=c1cc(-c2ccccc2)c2cc3c(cc2[nH]1)OCCO3 is listed as lipid storage change, negative = inhibition: inconclusive: 61.2%
# c1ccc(-n2nnnc2-n2cnc3ccccc32)cc1 is listed as Potency: inconclusive: 9.2 µM [rising, partial curve]
# CCN(CC(=O)Nc1ccc2c(c1)OCCO2)C(=O)C(C)Oc1ccc(Cl)cc1 (stereo unspecified) is listed as lipid storage change, negative = inhibition: inconclusive
